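Protease assay of ClpP1P2, read by the AMC dye that it sets free. Target: ClpP1P2, Mycobacterium tuberculosis (UniProt P9WPC5 and UniProt P9WPC3). Concentration: 50 µM. Higher reads as stronger inhibition, judged from the few compounds that gave an IC50. Most other retested compounds had strongly negative values. Of about 69,000 compounds tested this way, about 10 (0.015%) reached 50% or more in at least one test.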

Sequences of proteins named here, by UniProt entry; tags and fusion partners are left off.
UniProt P9WPC5, whole entry: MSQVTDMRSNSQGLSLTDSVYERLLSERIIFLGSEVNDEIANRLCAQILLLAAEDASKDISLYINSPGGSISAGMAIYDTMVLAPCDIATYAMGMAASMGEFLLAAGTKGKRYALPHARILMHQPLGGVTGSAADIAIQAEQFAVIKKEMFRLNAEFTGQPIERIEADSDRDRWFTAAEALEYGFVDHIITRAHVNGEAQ
UniProt P9WPC3, whole entry partner: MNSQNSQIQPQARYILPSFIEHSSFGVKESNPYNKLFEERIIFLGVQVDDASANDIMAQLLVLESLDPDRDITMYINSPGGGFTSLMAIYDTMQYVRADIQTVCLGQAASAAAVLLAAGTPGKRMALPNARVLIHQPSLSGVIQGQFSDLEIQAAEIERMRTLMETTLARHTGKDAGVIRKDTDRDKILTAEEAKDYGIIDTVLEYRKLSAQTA

The filed quantity is “Percent Effect” (%). The record does not define 0% and 100%; most values in the screen are far below 50% and negative numbers occur (in some assays of this library far below -100). The compounds are a random part of those screened.

| # | Compound | percent effect |
|---|---|---|
| 1 | `CN(C)CCCn1ccnc1C1CCCN(c2cc(N)ncn2)C1` (stereo unspecified) | -17.32 |
| 2 | `COc1ccc(S(=O)(=O)N[C@H]2CN(C(C)=O)C[C@@H]2C2CC2)cc1C` | -12.14 |
| 3 | `CCOC(=O)N1CCC2(CCCN(C3CCOCC3)C2=O)C1` (stereo unspecified) | -1.795 |
| 4 | `CC(C)n1[nH]c(=O)c2c1NC(=O)CSC2C1CCCCC1` (stereo unspecified) | -16.26 |
| 5 | `COCC(O)CNC(=O)c1coc(COc2ccc3sc(C)nc3c2)n1` (stereo unspecified) | -8.266 |
| 6 | `COC(=O)[C@H](C)NC(=O)Cc1c(C)nc2cc(=O)[nH]n2c1C` | -2.807 |
| 7 | `O=C(CO)N1CCC(c2ccnc(Nc3cc(C(F)(F)F)ccn3)n2)C1` (stereo unspecified) | 4.794 |
| 8 | `Cc1nnc(C(C)N2CCc3[nH]c4ccccc4c3C2)o1` (stereo unspecified) | -4.085 |
| 9 | `CN(C)CCN1CCC(CNCc2c[nH]nc2C(C)(C)C)CC1` | 25.22 |
| 10 | `O=C(c1cccc(Cl)c1F)N1CCOC2(CNCCOC2)C1` (stereo unspecified) | 7.025 |
| 11 | `CS(=O)(=O)CCNC1CCCN(Cc2noc(C3CC3)n2)C1` (stereo unspecified) | -0.6587 |
| 12 | `CC(C)CNC(=O)N1C[C@@H]2CCCN[C@@H]2C1` | -7.467 |
| 13 | `COc1ccc2c(c1)OCC(CNC(=O)c1cnc(NC(C)C)nc1)C2` (stereo unspecified) | 5.482 |
| 14 | `Cc1cc(C(=O)N2CCC3(CC2)C(=O)N(C)CCN3CC2CC2)c(C)o1` | -7.435 |
| 15 | `CCN1C[C@@H]2CN(C(=O)c3ccsc3)C[C@@H]2C1=O` | 0.4213 |
| 16 | `CC1CN(Cc2cnn(C)c2)CCN1c1ccc2nncn2n1` (stereo unspecified) | -6.692 |
| 17 | `Cc1cc(CN(C)C(=O)NCC2CCS(=O)(=O)C2)no1` (stereo unspecified) | -2.339 |
| 18 | `CC(C)(C)c1n[nH]c(C2CN(CCc3ccncc3)CCO2)n1` (stereo unspecified) | -6.63 |
| 19 | `COC(=O)N1CCCCC1C(=O)N1CCCN(c2ccnc(C)c2)CC1` (stereo unspecified) | 2.876 |
| 20 | `CC(C)(C)c1n[nH]c(C2CN(C(=O)c3cnc[nH]3)CCO2)n1` (stereo unspecified) | -5.572 |
| 21 | `CC(=O)N1CCCC2(CN(Cc3ccncc3)CCO2)C1` (stereo unspecified) | 3.479 |
| 22 | `Cc1ccc(C(=O)NCCCn2cncn2)c(=O)[nH]1` | -2.671 |
| 23 | `COc1ccc2c(c1)OCC(Cc1cnc(N)c(C)c1)C2` (stereo unspecified) | -6.681 |
| 24 | `Cc1nc(N2CCC3(CCOC3)C2)c2cc[nH]c2n1` (stereo unspecified) | 3.192 |
| 25 | `O=C1CCC2(CCCN(C(=O)c3cccnc3)CC2)N1` (stereo unspecified) | -1.171 |
| 26 | `Cn1cc(CCNC(=O)NCc2nnc3n2CCC3)cn1` | 4.171 |
| 27 | `COc1ccc(Cl)cc1S(=O)(=O)N1C[C@@H]2CC[C@H](C1)N(C)C2=O` | 1.513 |
| 28 | `O=c1cc(N2CCOCC2)cnn1CCc1ccc(F)cc1` | -17.42 |
| 29 | `CCN1CCC(CC(=O)N2CCN(c3ccccc3OC)CC2C)CC1` (stereo unspecified) | -16.82 |
| 30 | `CN1CCCCC1Cc1nc2c(cc1C(N)=O)CCC2` (stereo unspecified) | -0.1221 |
| 31 | `CCn1ncc2c1C(COCC1CC1)N(Cc1ccccn1)CC2` (stereo unspecified) | -1.583 |
| 32 | `CCCNC(=O)c1c(-n2cnnn2)sc2c1CCC2` | -9.189 |
| 33 | `COC(=O)[C@H]1C[C@@H](O)CCN1S(=O)(=O)c1cc(C)c(Cl)cc1C` | -10.44 |
| 34 | `O=C(N1CCCC1)N1CCCC(c2nccn2Cc2ccncc2)C1` (stereo unspecified) | -14.67 |
| 35 | `CN(C)CC1CN(CC(=O)N2CCc3ccccc32)CCO1` (stereo unspecified) | -9.741 |
| 36 | `COc1nccnc1N1CCN(Cc2cccc(C)c2)C(=O)C1` | -17.03 |
| 37 | `Cc1noc(C)c1C(=O)N1C[C@@H]2CCCO[C@@H]2[C@H](N(C)C)C1` | 0.2024 |
| 38 | `Cc1ccc(C)n1-c1ccc(C(=O)NCCNc2ncccn2)cc1` | 7.875 |
| 39 | `CCC(CC)CN(C)Cc1nc(-c2ccccc2NS(C)(=O)=O)oc1C` | 1.315 |
| 40 | `COCc1noc(-c2ccc(N(C)Cc3nccs3)nc2)n1` | -15.86 |
| 41 | `O=C(Nc1ccc2c(c1)OCCO2)N1CCCC1c1ccco1` (stereo unspecified) | -4.624 |
| 42 | `Cc1cc(C(=O)N2CCC(Nc3cccnc3)CC2)c(C)s1` | -2.458 |
| 43 | `Cc1cc(C)c2nc(CN3CCCC(c4cc[nH]n4)C3)cc(O)c2c1` (stereo unspecified) | -19.26 |
| 44 | `Nc1nccnc1CC1CCCN(Cc2cccc3[nH]ccc23)C1` (stereo unspecified) | 10.43 |
| 45 | `CCn1ccnc1CN(C)c1nc(-c2ccc(Cl)cc2)nc2c1CNC2` | -21.1 |
| 46 | `Cc1ccc(CN(C)c2nccc(-c3cn(C)nc3C)n2)o1` | -18.52 |
| 47 | `CC(C)c1nc(CN(C)C(=O)Cn2nc3ccccc3n2)no1` | 0.4009 |
| 48 | `Cc1ccc(OCCN2CCC(c3ccnn3CCO)CC2)cc1` | -7.276 |
| 49 | `COCC1c2nnn(CC3CC3)c2CCN1C(=O)c1cccn1C` (stereo unspecified) | -2.237 |
| 50 | `Cc1nn(C)c(C)c1CNCc1cccnc1N1CCOCC1` | 11.26 |
| 51 | `Cc1noc(C2CCN(C(C)c3nc(C(C)(C)C)no3)CC2)n1` (stereo unspecified) | 8.65 |
| 52 | `COC(=O)CSCc1noc(-c2ccc(Cl)cc2)n1` | 5.129 |
| 53 | `CN(CCOc1ccccc1)C(=O)Nc1cccn(C)c1=O` | -10.39 |
| 54 | `O=C(c1ccoc1)N1CCc2c(COCc3ccncc3)cncc2C1` | 2.611 |
| 55 | `CCCc1nc(C)c(CNc2nc(C)nc3oc(C)nc23)s1` | 3.011 |
| 56 | `CCN1CCC2(CN(C(=O)N(C)C)CC23CCNCC3)C1=O` (stereo unspecified) | -4.277 |
| 57 | `CS(=O)(=O)NC1CCN(C(=O)c2coc(CN3CCOCC3)c2)CC1` | -4.86 |
| 58 | `COc1ccc(CNCC(O)c2cccc(O)c2)cc1Br` (stereo unspecified) | -15.73 |
| 59 | `Cc1ccc(CCCC(=O)N2CCN(C3CCCN(C)C3)CC2)s1` (stereo unspecified) | -7.729 |
| 60 | `CC(C)n1c(=O)c2sccc2n(CC(=O)Nc2cccc(Cl)c2)c1=O` | -8.529 |
| 61 | `COc1ccc(OCCNCCn2cccn2)cc1` | -5.651 |
| 62 | `O=C(c1cn(Cc2ccccc2)c2ncccc12)N1CCOCC1` | -0.1306 |
| 63 | `CC(C)c1cc(C2CCN(C(=O)Cn3cnc4ccccc43)CC2)[nH]n1` | -16.14 |

Some entries from above, unchanged:

With CCn1ccnc1CN(C)c1nc(-c2ccc(Cl)cc2)nc2c1CNC2 the screen gave -21.1%.
With COc1ccc2c(c1)OCC(Cc1cnc(N)c(C)c1)C2 (stereo unspecified) the screen gave -6.681%.
With Cc1nnc(C(C)N2CCc3[nH]c4ccccc4c3C2)o1 (stereo unspecified) the screen gave -4.085%.
With CC(C)n1[nH]c(=O)c2c1NC(=O)CSC2C1CCCCC1 (stereo unspecified) the screen gave -16.26%.
With O=C(c1cn(Cc2ccccc2)c2ncccc12)N1CCOCC1 the screen gave -0.1306%.
With CS(=O)(=O)CCNC1CCCN(Cc2noc(C3CC3)n2)C1 (stereo unspecified) the screen gave -0.6587%.

The values are deposited in ChEMBL (CHEMBL3988442, “University of Dundee, Small-Polar-MMV Screening Library” (2021)).